This assay concerns BDF1 mice, B16 melanoma ip, median survival T/C. In words: NCI In Vivo Anticancer Drug Screen. Data for tumor model B16 Melanoma (intraperitoneal) in B6D2F1 (BDF1) mice. The following applies: T/C endpoint: median survival time, higher T/C = longer survival. The essentials: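 Survival or tumor size is measured after treatment of tumor-bearing mice and normalised to the vehicle-treated control group.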

[1] abbreviates: dose: 200.0 mg/kg/injection, schedule: Q01DX009 (ip), vehicle: saline with Tween-80.
The mark [2] stands for this setting: dose: 50.0 mg/kg/injection, schedule: Q01DX009 (ip), vehicle: saline with Tween-80.
Setting [3] is: dose: 100.0 mg/kg/injection, schedule: Q01DX009 (ip), vehicle: saline with Tween-80.
The mark [4] stands for this setting: dose: 200.0 mg/kg/injection, schedule: Q01DX009 (ip), vehicle: Klucel (hydroxypropylcellulose) (HPC).
The mark [5] stands for this setting: dose: 0.12 mg/kg/injection, schedule: Q01DX009 (ip), vehicle: saline.
Setting [6] is: dose: 0.25 mg/kg/injection, schedule: Q01DX009 (ip), vehicle: saline.
Setting [7] is: dose: 0.5 mg/kg/injection, schedule: Q01DX009 (ip), vehicle: saline.
The mark [8] stands for this setting: dose: 1.0 mg/kg/injection, schedule: Q01DX009 (ip), vehicle: saline.
The mark [9] stands for this setting: dose: 2.0 mg/kg/injection, schedule: Q01DX009 (ip), vehicle: saline.
Where [10] appears, read: dose: 12.5 mg/kg/injection, schedule: Q01DX009 (ip), vehicle: saline with Tween-80.
[11] abbreviates: dose: 4.0 mg/kg/injection, schedule: Q01DX009 (ip), vehicle: saline.
[12] abbreviates: dose: 400.0 mg/kg/injection, schedule: Q01DX009 (ip), vehicle: saline with Tween-80.
The mark [13] stands for this setting: dose: 12.5 mg/kg/injection, schedule: Q01DX009 (ip), vehicle: Klucel (hydroxypropylcellulose) (HPC).
[14] abbreviates: dose: 25.0 mg/kg/injection, schedule: Q01DX009 (ip), vehicle: Klucel (hydroxypropylcellulose) (HPC).
Where [15] appears, read: dose: 100.0 mg/kg/injection, schedule: Q01DX009 (ip), vehicle: Klucel (hydroxypropylcellulose) (HPC).
Setting [16] is: dose: 8.0 mg/kg/injection, schedule: Q01DX009 (ip), vehicle: saline.
The mark [17] stands for this setting: dose: 16.0 mg/kg/injection, schedule: Q01DX009 (ip), vehicle: saline.

The list does not hold the whole screen: it gathers tests that were run many times, whatever their T/C, doses with no T/C, and many T/C values between a quarter and a half above the control. Other doses and runs of a compound stand elsewhere. T/C is the treated group as % of the vehicle group. Some entries give survivors of the animals treated and no T/C: the source files T/C as zero there, which appears to mark a toxic dose or a test without result, not a measured value. Some doses without a T/C left all or most animals alive at the check, yet need not have been tolerated: the source hardly ever lists a survival T/C far under the control, and the zero likely stands for such cases as well. Survivors were counted at the toxicity check, usually on the fifth day, unless a day is given; later deaths do not show. Schedules are NCI's codes, read here as Q, the interval in days (D) or hours (H), X, the number of doses. Some entries were tested several times; their values stand side by side, smallest first. Where survival is the endpoint, the PubChem record calls one and a half times the control and up active, and a quarter to a half above the control has no call in these data; cut-offs in other NCI protocols can differ. Some T/C values carry the count of animals alive at the toxicity check (mostly the fifth day); without a count, all were alive then. Brackets with × count equal records among those shown.

On to `O=C1NC(=O)C(Cc2ccccc2)(c2ccccc2)N1` (stereo not drawn), for which the survivor count under setting [1] is on record as 10 of 10.

Consider `COc1ccc([I+]c2cccc(Cl)c2)cc1Cl`, for which the survivor count reads like this: under setting [2], 8 of 10; under setting [3], 9 of 10; under setting [1], 0 of 10.

For the molecule `O=C(NC(CS)C(=O)O)OCc1ccccc1` (stereo not drawn), the survivor count under setting [4] was 6 of 10.

Turning to `COC(COC(N)=O)C1=C(N2CC2)C(=O)C(C)=C(N2CC2)C1=O` (stereo not drawn), the T/C is 130 % of control [9 of 10 alive] (dose: 0.06 mg/kg/injection, schedule: Q01DX009 (ip), vehicle: saline); 141 % of control under setting [5]; 145 % of control under setting [6]. Besides, the survivor count is 10 of 10 under setting [5]; 6 of 10 under setting [6]; 10 of 10 under setting [7]; 9 of 10 and 10 of 10 under setting [8]; 9 of 10 under setting [9].

As for `COC(=O)c1cc2cc3c(c(O)c2c(=O)o1)OC1(Cc2c(O)c4c(c(O)c2O1)C(=O)C(OC)CC4=O)CC3O` (stereo not drawn), the survivor count runs as follows: under setting [10], 10 of 10; under setting [2], 10 of 10.

For the molecule `COc1cc([C@@H]2c3cc4c(c(O)c3C[C@H]3COC(=O)[C@@H]32)OCO4)cc(OC)c1OC`, the survivor count under setting [9] was 5 of 10; the survivor count (dose: 2.0 mg/kg/injection, schedule: Q01DX009 (ip), vehicle: suspension in saline) is recorded as 7 of 10; the survivor count under setting [11] is on record as 2 of 10; the survivor count (dose: 4.0 mg/kg/injection, schedule: Q01DX009 (ip), vehicle: suspension in saline) is on record as 4 of 10.

`O=C(O)C(O)C(=O)O.[NH2-].[NH2-].[Pt+2]`: under “dose: 2.0 mg/kg/injection, schedule: Q01DX009 (ip), vehicle: other”, the T/C was 131 % of control. In addition, the survivor count was 8 of 9 (dose: 24.0 mg/kg/injection, schedule: Q01DX009 (ip), vehicle: other) and 10 of 10 (dose: 32.0 mg/kg/injection, schedule: Q01DX009 (ip), vehicle: other).

Consider `COCC(O)Cn1ccnc1[N+](=O)[O-]` (stereo not drawn), for which the T/C (dose: 400.0 mg/kg/injection, schedule: Q01DX009 (ip), vehicle: suspension in saline) was 125 % of control.

As to `COc1ccc(-c2nc3cc(Cl)ccc3c(=O)o2)cc1`, under “dose: 400.0 mg/kg/injection, schedule: Q01DX009 (ip), vehicle: Klucel (hydroxypropylcellulose) (HPC)”, the survivor count is on record as 2 of 10.

On to `Cc1c(N)nc(C(CC(N)=O)NCC(N)C(N)=O)nc1C(=O)NC(C(=O)NC(C)C(O)C(C)C(=O)NC(C(=O)NCCc1nc(-c2nc(C(=O)NCCC[S+](C)C)cs2)cs1)C(C)O)C(OC1OC(CO)C(O)C(O)C1OC1OC(CO)C(O)C(OC(N)=O)C1O)c1cnc[nH]1` (stereo not drawn), for which the survivor count reads like this: (dose: 31.3 mg/kg/injection, schedule: Q01DX009 (ip), vehicle: saline) 10 of 10; (dose: 62.5 mg/kg/injection, schedule: Q01DX009 (ip), vehicle: saline) 10 of 10.

For `COC(=O)CC(=O)C=P(c1ccccc1)(c1ccccc1)c1ccccc1`, the survivor count is 0 of 10 under setting [1] and 0 of 10 under setting [12].

Take `O=C1[O][Hg][c]2cccc3cccc1c23`: the T/C reads like this: (dose: 2.5 mg/kg/injection, schedule: Q04DX003 (ip), vehicle: saline with Tween-80) 147 % of control; (dose: 5.0 mg/kg/injection, schedule: Q04DX003 (ip), vehicle: saline with Tween-80) 144 % of control. The survivor count reads like this: (dose: 3.75 mg/kg/injection, schedule: Q04DX003 (ip), vehicle: saline with Tween-80) 10 of 10; (dose: 10.0 mg/kg/injection, schedule: Q01DX009 (ip), vehicle: saline with Tween-80) 10 of 10.

Regarding `Cc1cc(C)nc(NS(=O)(=O)c2ccc(N=Nc3nc4[nH]c(N)nc(=S)c4[nH]3)cc2)n1`, the survivor count (dose: 3.12 mg/kg/injection, schedule: Q01DX009 (ip), vehicle: Klucel (hydroxypropylcellulose) (HPC)) was 10 of 10; the survivor count (dose: 6.25 mg/kg/injection, schedule: Q01DX009 (ip), vehicle: Klucel (hydroxypropylcellulose) (HPC)) is given as 9 of 10; the survivor count under setting [13] is listed as 10 of 10; the survivor count under setting [14] is on record as 9 of 10; the survivor count (dose: 50.0 mg/kg/injection, schedule: Q01DX009 (ip), vehicle: Klucel (hydroxypropylcellulose) (HPC)) is 10 of 10; the survivor count under setting [15] was 10 of 10.

On to `O=C(Nc1ccccc1C(F)(F)F)c1ccc(C(=O)Nc2ccccc2C(F)(F)F)cc1`, for which the survivor count is given as 10 of 10 under setting [3], 10 of 10 under setting [1] and 7 of 10 under setting [12].

For the molecule `O=NN(CCCl)C(=O)NC1[C@H](O)CCC[C@@H]1O` (stereo partly drawn), the T/C (dose: 0.32 mg/kg/injection, schedule: Q01DX009 (ip), vehicle: saline) is 137 % of control. The survivor count (dose: 10.0 mg/kg/injection, schedule: Q01DX009 (ip), vehicle: saline) is recorded as 10 of 10.

Take `O=CCC(O)C(O)C(O)CO` (stereo not drawn): the survivor count (dose: 2400.0 mg/kg/injection, schedule: Q01DX009 (ip), vehicle: suspension in saline) is 0 of 10.

As to `O=C(C=C(C(F)(F)F)C(F)(F)F)c1cccc([N+](=O)[O-])c1`, the survivor count by setting is: (dose: 1.56 mg/kg/injection, schedule: Q01DX009 (ip), vehicle: saline with Tween-80) 10 of 10; (dose: 3.13 mg/kg/injection, schedule: Q01DX009 (ip), vehicle: saline with Tween-80) 10 of 10; (dose: 6.25 mg/kg/injection, schedule: Q01DX009 (ip), vehicle: saline with Tween-80) 10 of 10; under setting [10], 10 of 10; (dose: 25.0 mg/kg/injection, schedule: Q01DX009 (ip), vehicle: saline with Tween-80) 10 of 10. The T/C (dose: 12.5 mg/kg/injection, schedule: Q04DX003 (ip), vehicle: saline with Tween-80) was 125 % of control.

As for `CC1(C)CC1(Br)Br`, the survivor count under setting [1] is 10 of 10.

Regarding `CC1=CC(=O)C=CC1=Nc1ccc(N(C)C)cc1`, under setting [3], the survivor count is recorded as 2 of 10.

Regarding `N[C@H](C(=O)O)[C@@H]1CC(Cl)=NO1`, the T/C under setting [7] was 93 [8 of 10 alive], 98, 100, 101, 104 [9 of 10 alive], 106 % of control; the T/C under setting [8] was 102, 104, 106, 109 (2×), 110 [9 of 10 alive], 112, 116 % of control; the T/C under setting [9] was 100, 103, 106, 106 [9 of 10 alive], 109, 112, 116, 131 % of control; the T/C under setting [11] is 101 [9 of 10 alive], 105, 107, 113, 114, 116, 119 % of control; the T/C under setting [16] is reported as 91, 102, 122 % of control; the T/C under setting [17] is 89 % of control. Moreover, the survivor count runs as follows: under setting [11], 10 of 10; under setting [16], 10 of 10; under setting [17], 9 of 10 and 10 of 10; (dose: 32.0 mg/kg/injection, schedule: Q01DX009 (ip), vehicle: saline) 10 of 10.

On to `COc1ccc(C(=O)C(C)Br)c(OCc2ccccc2)c1OC` (stereo not drawn), for which the survivor count under setting [12] is 10 of 10.

As to `CCCCCC#CC(=O)O`, the survivor count (dose: 300.0 mg/kg/injection, schedule: Q01DX009 (ip), vehicle: Klucel (hydroxypropylcellulose) (HPC)) is given as 10 of 10.

For the molecule `CCN(CC)C(=O)C1CN2CCc3cc(OC)c(OC)cc3C2CC1OC(C)=O` (stereo not drawn), the survivor count by setting is: under setting [13], 10 of 10; under setting [14], 8 of 10; under setting [4], 10 of 10.

Regarding `C=C1C(=O)OC2CC1C(OC(C)=O)CC1(C)OC1CCC1(C)OC1CCC2(C)O` (stereo not drawn), the survivor count under setting [15] is 7 of 10.

These data come from PubChem BioAssay AID192 (DTP/NCI, 2004).
